Values from PubChem BioAssay AID1053208 (Peter MacCallum Cancer Centre, 2014)
The deposit covers about 17,000 reagents; below is an unselected part. 788 of them (4.7%) count as active. 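Calls rest on z-score classes alone; an extra cut-off of viability at most 70% of control was not applied to them.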 Reagents against one gene are numbered here. Not all columns of the deposit are shown.

Screen: 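Synthetic lethal interactions between gene loss and doxorubicin in osteosarcoma cells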 (primary screen)
System: mouse osteosarcoma cells, early-passage culture from an engineered mouse model of fibroblastic bone tumour
Knock-down reagent: siRNA pool against mouse genes, 40 nM
Duration: about 120 h (48 h before drug, then 72 h with drug)
Treatment: doxorubicin 100 nM for 72 h, roughly 30-40% inhibitory dose
Read-out: 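Luminescent ATP signal taken as viability with or without 100 nM doxorubicin for 72 h; mean of two wells set against non-targeting siRNA and turned into robust z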
Scale: viability z-score with doxorubicin: higher = more viable cells under doxorubicin; viability z-score without drug: higher = more viable cells with knock-down alone
Call rule: 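a pool counts as active when its viability z-score with doxorubicin is -2 or below and its z-score without drug lies between -2 and 2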

| Gene | reagent | combined z-score class | viability z-score with doxorubicin | viability z-score without drug | Call |
| --- | --- | --- | --- | --- | --- |
| Chrne | 1 | no change with or without drug | -1.8 | -1.18 | inactive |
| Ect2 | 1 | no change with or without drug | -0.22 | -1.52 | inactive |
| Ubxn10 | 1 | no change with or without drug | 0.22 | -0.51 | inactive |
| Bdh1 | 1 | no change with or without drug | 0.34 | 0.17 | inactive |
| Or9g3 | 1 | low cell count without drug only | -1.57 | -2.7 | inactive |
| Rad50 | 1 | no change with or without drug | -0.22 | -0.51 | inactive |
| Klrd1 | 1 | high cell count without drug only | 0.67 | 2.87 | inactive |
| Npm1 | 1 | high cell count with doxorubicin only | 2.47 | 0.84 | inactive |
| Carm1 | 1 | low cell count with doxorubicin only | -2.14 | 1.52 | active |
| Rrm1 | 1 | low cell count with and without drug | -4.95 | -2.87 | inactive |
| Galnt12 | 1 | no change with or without drug | 0 | -0.17 | inactive |
| 4933436I01Rik | 1 | no change with or without drug | -0.11 | 0.51 | inactive |
| Parp1 | 1 | no change with or without drug | -0.67 | 0.17 | inactive |
| Klhl31 | 1 | no change with or without drug | 1.57 | 0.34 | inactive |
| Klhl31 | 2 | no change with or without drug | 1.12 | 0.34 | inactive |
| Tax1bp1 | 1 | no change with or without drug | -1.12 | -1.85 | inactive |
| Cab39 | 1 | no change with or without drug | -0.45 | -0.51 | inactive |
| Zbtb24 | 1 | no change with or without drug | 0.11 | -1.18 | inactive |
| Tmtc2 | 1 | no change with or without drug | 0.22 | 1.18 | inactive |
| Tmtc2 | 2 | no change with or without drug | -0.67 | -0.17 | inactive |

Active calls (from the list above):
| Gene | reagent | combined z-score class | viability z-score with doxorubicin | viability z-score without drug | Call |
| --- | --- | --- | --- | --- | --- |
| Carm1 | 1 | low cell count with doxorubicin only | -2.14 | 1.52 | active |

Next entries follow.
| Gene | reagent | combined z-score class | viability z-score with doxorubicin | viability z-score without drug | Call |
| --- | --- | --- | --- | --- | --- |
| Ptger2 | 1 | no change with or without drug | -0.45 | -1.01 | inactive |
| Retn | 1 | no change with or without drug | -1.12 | -0.84 | inactive |
| Or6c2b | 1 | no change with or without drug | -0.9 | 1.18 | inactive |
| Svopl | 1 | no change with or without drug | -1.57 | 0 | inactive |
| Or4f59 | 1 | no change with or without drug | -0.67 | -0.67 | inactive |
| Thrsp | 1 | no change with or without drug | -1.35 | 0 | inactive |
| Abcc2 | 1 | no change with or without drug | 0.34 | -0.84 | inactive |
| Gpsm1 | 1 | no change with or without drug | 0.9 | 1.52 | inactive |
| Dapk3 | 1 | no change with or without drug | 0.45 | -0.17 | inactive |
| Med28 | 1 | no change with or without drug | 0.22 | -1.69 | inactive |
| Cpne9 | 1 | no change with or without drug | -0.11 | -0.51 | inactive |
| Coq8b | 1 | no change with or without drug | -0.22 | 0.84 | inactive |
| Tet2 | 1 | no change with or without drug | 0.11 | 1.18 | inactive |
| Ube2s | 1 | high cell count without drug only | 0.67 | 2.19 | inactive |
| Camta2 | 1 | no change with or without drug | 0.45 | -0.17 | inactive |
| Onecut2 | 1 | no change with or without drug | 1.01 | 0.84 | inactive |
| Ddx42 | 1 | no change with or without drug | -0.34 | -0.51 | inactive |
| Slc30a8 | 1 | low cell count with doxorubicin only | -2.25 | -0.84 | active |
| Dennd4a | 1 | no change with or without drug | 0.34 | 0.84 | inactive |
| Dennd4a | 2 | low cell count with doxorubicin only | -2.7 | -1.18 | active |
| Cblc | 1 | no change with or without drug | -0.11 | -0.17 | inactive |
| Ube2i | 1 | low cell count with and without drug | -6.3 | -5.23 | inactive |
| Ackr5 | 1 | no change with or without drug | 1.35 | 0.67 | inactive |
| Rtn4rl2 | 1 | low cell count with doxorubicin only | -2.47 | -1.01 | active |
| Cox4i1 | 1 | no change with or without drug | -0.67 | 0.67 | inactive |
| Vmn1r70 | 1 | no change with or without drug | 0.45 | 1.01 | inactive |
| Scnn1a | 1 | no change with or without drug | -0.45 | -0.34 | inactive |
| Dclre1c | 1 | no change with or without drug | 0.34 | 0.34 | inactive |
| Vmn1r180 | 1 | no change with or without drug | 0.34 | 0.51 | inactive |
| Bnip3l | 1 | no change with or without drug | -0.45 | -0.84 | inactive |
